The list does not hold the whole screen: it is rich in T/C values a quarter to a half above the control, in often repeated tests (any T/C) and in doses without a T/C. Other doses and runs of a compound stand elsewhere. T/C: endpoint of the treated group in % of that of the vehicle group. Some doses have a count of surviving animals in place of a T/C: the source holds a T/C of zero for them, seemingly a mark for toxic or unscored doses. Some doses without a T/C left all or most animals alive at the check, yet need not have been tolerated: survival well below the control is almost never listed, so the zero probably covers shortened survival too. Counts of survivors are from the toxicity check (mostly the fifth day) where no day follows; animals may have died later. Schedule codes are those of the source, read here as Q, the interval in days (D) or hours (H), X, the number of doses. Some doses were run more than once; the values are given in rising order. For survival time, the PubChem record calls one and a half times the control and up active, and a quarter to a half above the control has no call in these data; cut-offs in other NCI protocols can differ. Some T/C values are followed by the survivors on the day toxicity was checked, most often the fifth; where none is given, no animal had died by that day.

This experiment relates to L1210 leukemia ip in BDF1 mice, survival T/C. The experiment can be described thus: NCI In Vivo Anticancer Drug Screen. Data for tumor model L1210 Leukemia (intraperitoneal) in B6D2F1 (BDF1) mice. Particulars: T/C endpoint: mean survival time, higher T/C = longer survival.
Setting [1] is: dose: 17.0 mg/kg/injection, schedule: Q01DX001 (ip), vehicle: carboxymethylcellulose (CMC).
Setting [2] is: dose: 100.0 mg/kg/injection, schedule: Q01DX001 (ip), vehicle: carboxymethylcellulose (CMC).
Where [3] appears, read: dose: 200.0 mg/kg/injection, schedule: Q01DX001 (ip), vehicle: carboxymethylcellulose (CMC).
Setting [4] is: dose: 400.0 mg/kg/injection, schedule: Q01DX001 (ip), vehicle: carboxymethylcellulose (CMC).
Setting [5] is: dose: 400.0 mg/kg/injection, schedule: Q04DX002 (ip), vehicle: Klucel (hydroxypropylcellulose) (HPC).
The mark [6] stands for this setting: dose: 400.0 mg/kg/injection, schedule: Q01DX009 (ip), vehicle: Klucel (hydroxypropylcellulose) (HPC).
Where [7] appears, read: dose: 300.0 mg/kg/injection, schedule: Q01DX001 (ip), vehicle: saline.
Where [8] appears, read: dose: 200.0 mg/kg/injection, schedule: Q01DX009 (ip), vehicle: Klucel (hydroxypropylcellulose) (HPC).
[9] abbreviates: dose: 400.0 mg/kg/injection, schedule: Q04DX002 (ip), vehicle: saline with Tween-80.
Setting [10] is: dose: 200.0 mg/kg/injection, schedule: Q04DX003 (ip), vehicle: saline.
Setting [11] is: dose: 400.0 mg/kg/injection, schedule: Q04DX003 (ip), vehicle: saline.

For `COc1ccc(Cl)cc1NC(=O)N(CCCl)N=O`, the T/C by setting is: (dose: 0.2 mg/kg/injection, schedule: Q01DX009 (ip), vehicle: carboxymethylcellulose (CMC)) 130 % of control; (dose: 0.4 mg/kg/injection, schedule: Q01DX009 (ip), vehicle: carboxymethylcellulose (CMC)) 146 % of control; (dose: 0.7 mg/kg/injection, schedule: Q01DX009 (ip), vehicle: carboxymethylcellulose (CMC)) 140 % of control; (dose: 1.5 mg/kg/injection, schedule: Q01DX009 (ip), vehicle: carboxymethylcellulose (CMC)) 135 % of control; (dose: 3.0 mg/kg/injection, schedule: Q01DX009 (ip), vehicle: carboxymethylcellulose (CMC)) 143 % of control; (dose: 4.0 mg/kg/injection, schedule: Q01DX001 (ip), vehicle: carboxymethylcellulose (CMC)) 128 % of control. For the same compound, the T/C is, setting by setting: (dose: 8.0 mg/kg/injection, schedule: Q01DX001 (ip), vehicle: carboxymethylcellulose (CMC)) 138 % of control; (dose: 8.5 mg/kg/injection, schedule: Q01DX001 (ip), vehicle: Klucel (hydroxypropylcellulose) (HPC)) 141 % of control; (dose: 9.0 mg/kg/injection, schedule: Q01DX009 (ip), vehicle: Klucel (hydroxypropylcellulose) (HPC)) 135 % of control; (dose: 13.3 mg/kg/injection, schedule: Q01DX009 (ip), vehicle: carboxymethylcellulose (CMC)) 131 % of control; under setting [1], 126 % of control; (dose: 17.0 mg/kg/injection, schedule: Q01DX009 (ip), vehicle: Klucel (hydroxypropylcellulose) (HPC)) 146 % of control [5 of 6 alive]. The survivor count is 5 of 6 under setting [1]; 5 of 6 (dose: 40.0 mg/kg/injection, schedule: Q01DX001 (ip), vehicle: carboxymethylcellulose (CMC)); 6 of 6 (dose: 40.0 mg/kg/injection, schedule: Q01DX009 (ip), vehicle: Klucel (hydroxypropylcellulose) (HPC)); 3 of 6 (dose: 60.0 mg/kg/injection, schedule: Q01DX001 (ip), vehicle: carboxymethylcellulose (CMC)); 6 of 6 (dose: 60.0 mg/kg/injection, schedule: Q01DX009 (ip), vehicle: Klucel (hydroxypropylcellulose) (HPC)); 5 of 6 (dose: 150.0 mg/kg/injection, schedule: Q01DX001 (ip), vehicle: carboxymethylcellulose (CMC)). Further, for the setting “dose: 300.0 mg/kg/injection, schedule: Q01DX001 (ip), vehicle: carboxymethylcellulose (CMC)”, the survivor count is on record as 0 of 6.
On to `CN(/N=C/C(O)C(O)C(O)CO)c1ccccc1` (stereo not drawn), for which the survivor count (dose: 400.0 mg/kg/injection, schedule: Q01DX009 (ip), vehicle: saline) is 6 of 6.
On to `CC[Si](CC)(CC)N1CC1`, for which the survivor count runs as follows: under setting [2], 0 of 4; under setting [3], 0 of 4; under setting [4], 0 of 4.
For the compound `CC(=O)Nc1cccc(N)c1`, under setting [5], the survivor count is given as 1 of 3.
In the case of `CC(C)=NNC(=O)Nc1cccc(C)c1C`, the survivor count under setting [6] is recorded as 0 of 6.
For `CCCC(C)CN` (stereo not drawn), the survivor count (dose: 200.0 mg/kg/injection, schedule: Q01DX009 (ip), vehicle: saline with Tween-80) was 2 of 6 and the survivor count (dose: 400.0 mg/kg/injection, schedule: Q04DX003 (ip), vehicle: saline with Tween-80) was 0 of 6.
Regarding `NC(CSS(=O)(=O)O)=NC1CCCC1`, the survivor count is 1 of 6 under setting [2], 0 of 6 under setting [3] and 0 of 6 under setting [4].
As to `O=C(Nc1cc(Cl)ccc1Oc1cc(Cl)c(Cl)cc1S(=O)(=O)O)Nc1cc(Cl)ccc1Oc1cc(Cl)c(Cl)cc1S(=O)(=O)O`, under setting [7], the survivor count is given as 3 of 6.
Take `NC(N)=Nc1ccc([N+](=O)[O-])cc1`: the survivor count was 0 of 3 (dose: 100.0 mg/kg/injection, schedule: Q04DX002 (ip), vehicle: Klucel (hydroxypropylcellulose) (HPC)); 0 of 3 (dose: 200.0 mg/kg/injection, schedule: Q04DX002 (ip), vehicle: Klucel (hydroxypropylcellulose) (HPC)); 0 of 3 under setting [5].
On to `CCc1ccc(/C(C#N)=C/c2ccc(N(C)C)cc2)cc1`, for which the survivor count is listed as 6 of 6 under setting [8] and 6 of 6 under setting [6].
In the case of `CCC(C)(C)c1ccc(Oc2ccccc2)c(N)c1`, under “dose: 400.0 mg/kg/injection, schedule: Q01DX009 (ip), vehicle: other”, the survivor count is given as 4 of 6.
On to `COc1ccc(OC)c(NC(=O)Nc2cc(C(F)(F)F)ccc2Cl)c1`, for which the survivor count under setting [8] is on record as 5 of 6.
Regarding `CCOc1ccccc1NC(=O)C1CCCCC1C(=O)O` (stereo not drawn), the survivor count (dose: 400.0 mg/kg/injection, schedule: Q04DX002 (ip), vehicle: saline) is listed as 1 of 3.
`C#CC(OC(=O)NC(C(=O)OC)C(C)C)(c1ccccc1)c1ccccc1` (stereo not drawn): the T/C is, setting by setting: (dose: 200.0 mg/kg/injection, schedule: Q04DX002 (ip), vehicle: saline with Tween-80) 125 % of control; under setting [9], 134 % of control. Besides, the survivor count under setting [9] was 3 of 3.
In the case of `N=C(N)SC/C=C/CSC(=N)N`, the survivor count by setting is: under setting [10], 2 of 6; under setting [11], 0 of 6.
Take `COC(=O)c1[nH]cnc1/N=N/N(C)C1CCCCC1`: under setting [4], the survivor count is 2 of 4.
`OCCCCc1ccccc1`: where the note is “dose: 400.0 mg/kg/injection, schedule: Q01DX009 (ip), vehicle: saline sonified”, the survivor count was 4 of 6.
On to `CCCCCCCC(=O)[O][Hg][c]1ccccc1`, for which the survivor count is recorded as 1 of 6 (dose: 75.0 mg/kg/injection, schedule: Q01DX001 (ip), vehicle: other); 0 of 6 (dose: 150.0 mg/kg/injection, schedule: Q01DX001 (ip), vehicle: other); 0 of 6 (dose: 300.0 mg/kg/injection, schedule: Q01DX001 (ip), vehicle: other).
As to `CCN(CC)c1ccc(/C=C/C=O)cc1`, the survivor count (dose: 400.0 mg/kg/injection, schedule: Q04DX003 (ip), vehicle: gum acacia) is reported as 1 of 6.
Regarding `CCCCCCCCCCCCCCCCOc1ccc(Sc2ccc([N+](=O)[O-])cc2)cc1`, the survivor count by setting is: (dose: 100.0 mg/kg/injection, schedule: Q01DX001 (ip), vehicle: Klucel (hydroxypropylcellulose) (HPC)) 6 of 6; (dose: 200.0 mg/kg/injection, schedule: Q01DX001 (ip), vehicle: Klucel (hydroxypropylcellulose) (HPC)) 6 of 6.
On to `O=S1(=O)C2CCCC1CCC2`, for which the survivor count reads like this: (dose: 20.0 mg/kg/injection, schedule: Q01DX001 (ip), vehicle: saline) 0 of 6 and 2 of 6; (dose: 40.0 mg/kg/injection, schedule: Q01DX001 (ip), vehicle: saline) 0 of 6; (dose: 75.0 mg/kg/injection, schedule: Q01DX001 (ip), vehicle: saline) 0 of 6; (dose: 150.0 mg/kg/injection, schedule: Q01DX001 (ip), vehicle: saline) 0 of 6; under setting [7], 0 of 6.
For the compound `CC1(c2ccco2)NC(=O)N(Cl)C1=O` (stereo not drawn), the survivor count is, setting by setting: (dose: 25.0 mg/kg/injection, schedule: Q04DX003 (ip), vehicle: saline) 6 of 6; (dose: 50.0 mg/kg/injection, schedule: Q04DX003 (ip), vehicle: saline) 6 of 6; under setting [10], 4 of 6; under setting [11], 0 of 6.
On to `CSC1=NCCCC1`, for which the survivor count under setting [7] is 2 of 6.
In the case of `Cc1cc(-c2ccccc2)c2c(C#N)cn(-c3cccc(Cl)c3)c2n1`, the survivor count (dose: 200.0 mg/kg/injection, schedule: Q01DX001 (ip), vehicle: saline) was 3 of 3.

The values above are taken from PubChem BioAssay AID248 (DTP/NCI, 2004).
